Literature values in US6462088B1, “Disinfecting preparation containing chlorine in alcohol” (priority 1998, dated 2002).
At least one compound was matched to its structure with a doubt left.

SMILES	E0 standard oxidation potential, Ref. a) [V]	E0 standard oxidation potential, Ref. b) [V]
[O][Cl+][O-] [Chlorine dioxide]	1.275	1.71
NCl [Monochloroamine]	1.16	0.75
